Assay: Yellow Index (YI) of cured coating, ASTM E313
[1] = photoinitiator alone, 4 wt%, no photosensitizer, Lamp 1 (UV Hg lamp, 120 W/cm)
[2] = photoinitiator alone, 4 wt%, no photosensitizer, Lamp 2 (UV LED 395 nm, 16 W/cm^2)
[3] = photoinitiator alone, 4 wt%, no photosensitizer, Lamp 3 (UV LED 365 nm, 16 W/cm^2)
[4] = photoinitiator alone, 5 wt%, no photosensitizer, Lamp 1 (UV Hg lamp, 120 W/cm)
[5] = photoinitiator alone, 5 wt%, no photosensitizer, Lamp 2 (UV LED 395 nm, 16 W/cm^2)
[6] = photoinitiator alone, 5 wt%, no photosensitizer, Lamp 3 (UV LED 365 nm, 16 W/cm^2)
[7] = 4 wt% PI-1 + 1 wt% photosensitizer, Lamp 1 (UV Hg lamp, 120 W/cm), 24 hours after crosslinking
[8] = 4 wt% PI-1 + 1 wt% photosensitizer, Lamp 2 (UV LED 395 nm, 16 W/cm^2), 24 hours after crosslinking
[9] = 4 wt% PI-1 + 1 wt% photosensitizer, Lamp 3 (UV LED 365 nm, 16 W/cm^2), 24 hours after crosslinking
[10] = 4 wt% PI-2 + 1 wt% photosensitizer, Lamp 1 (UV Hg lamp, 120 W/cm), 24 hours after crosslinking
[11] = 4 wt% PI-2 + 1 wt% photosensitizer, Lamp 2 (UV LED 395 nm, 16 W/cm^2), 24 hours after crosslinking
[12] = 4 wt% PI-2 + 1 wt% photosensitizer, Lamp 3 (UV LED 365 nm, 16 W/cm^2), 24 hours after crosslinking

Work on `Cc1cc(C)c(C(=O)P(=O)(C(=O)c2c(C)cc(C)cc2C)c2ccccc2)c(C)c1` [PI-1, bis(2,4,6-trimethylbenzoyl) phenylphosphine oxide, reference compound] yielded a yellow index [1] of 2.84, a yellow index [2] of 1.63 and a yellow index [3] of 2.04. The yellow index [4] was 3.64, the yellow index [5] was 2.68 and the yellow index [6] was 2.84.
With `COc1cccc(OC)c1C(=O)P(=O)(CC(C)CC(C)(C)C)C(=O)c1c(OC)cccc1OC` (centres unmarked) [PI-5, bis(2,6-dimethoxybenzoyl)-2,4,-trimethylpentylphsophine oxide, reference compound] the yellow index [1] was 2.63, the yellow index [2] was 2.19 and the yellow index [3] was 2.37. The yellow index [4] was 2.93, the yellow index [5] was 2.52 and the yellow index [6] was 2.33.
Work on `CCSc1ccc(-c2cc3ccc(SCC)cc3oc2=O)cc1` [S3] yielded a yellow index [7] of 2.28, a yellow index [8] of 1.82 and a yellow index [9] of 1.81. The yellow index [10] was 2.34, the yellow index [11] was 1.58 and the yellow index [12] was 1.65.
In the case of `CCSc1ccc2cc(-c3ccccc3)c(=O)oc2c1` [S1], the yellow index [7] was 2.82, the yellow index [8] was 1.74 and the yellow index [9] was 1.64. The yellow index [10] was 2.82, the yellow index [11] was 0.73 and the yellow index [12] was 0.57. For the same molecule, the yellow index (4 wt% PI-3 + 1 wt% photosensitizer, Lamp 1 (UV Hg lamp, 120 W/cm), 24 hours after crosslinking) was 0.45, the yellow index (4 wt% PI-3 + 1 wt% photosensitizer, Lamp 2 (UV LED 395 nm, 16 W/cm^2), 24 hours after crosslinking) was 0.93 and the yellow index (4 wt% PI-3 + 1 wt% photosensitizer, Lamp 3 (UV LED 365 nm, 16 W/cm^2), 24 hours after crosslinking) was 1.00. For the same molecule, the yellow index (4 wt% PI-4 + 1 wt% photosensitizer, Lamp 1 (UV Hg lamp, 120 W/cm), 24 hours after crosslinking) was 0.59, the yellow index (4 wt% PI-4 + 1 wt% photosensitizer, Lamp 2 (UV LED 395 nm, 16 W/cm^2), 24 hours after crosslinking) was 1.10 and the yellow index (4 wt% PI-4 + 1 wt% photosensitizer, Lamp 3 (UV LED 365 nm, 16 W/cm^2), 24 hours after crosslinking) was 0.78. For the same molecule, the yellow index (4 wt% PI-5 + 1 wt% photosensitizer, Lamp 1 (UV Hg lamp, 120 W/cm), 24 hours after crosslinking) was 2.42, the yellow index (4 wt% PI-5 + 1 wt% photosensitizer, Lamp 2 (UV LED 395 nm, 16 W/cm^2), 24 hours after crosslinking) was 1.62 and the yellow index (4 wt% PI-5 + 1 wt% photosensitizer, Lamp 3 (UV LED 365 nm, 16 W/cm^2), 24 hours after crosslinking) was 1.02.
Molecule `CCCCC(CC)CSc1ccc2cc(-c3ccccc3)c(=O)oc2c1` (centres unmarked) [S2] has a yellow index [7] of 2.45, a yellow index [8] of 1.77 and a yellow index [9] of 1.83. It also gave a yellow index [10] of 2.20, a yellow index [11] of 1.40 and a yellow index [12] of 1.35.
For `CN(C)CCSc1ccc2cc(-c3ccccc3)c(=O)oc2c1` [S4], the yellow index [7] was 3.77, the yellow index [8] was 2.00 and the yellow index [9] was 2.22. It also gave a yellow index [10] of 2.46, a yellow index [11] of 1.24 and a yellow index [12] of 1.28.
Work on `CSc1ccc2cc(-c3nc4ccccc4n3C)c(=O)oc2c1` [S7] yielded a yellow index [7] of 12.91, a yellow index [8] of 10.75 and a yellow index [9] of 10.37. For the same molecule, the yellow index [10] was 7.35, the yellow index [11] was 5.91 and the yellow index [12] was 6.31.
`CCOP(=O)(C(=O)c1c(C)cc(C)cc1C)c1ccccc1` (centres unmarked) [PI-4, ethyl(2,4,6-trimethylbenzoyl)-phenyl phosphinate, reference compound] gave a yellow index [1] of 0.30, a yellow index [3] of 0.85 and a yellow index [4] of 0.57. The yellow index [5] was 0.54 and the yellow index [6] was 0.74.
Work on `Cc1cc(=O)oc2cc(SCCO)ccc12` [S5] yielded a yellow index [7] of 2.70, a yellow index [8] of 1.76 and a yellow index [9] of 1.85. For the same molecule, the yellow index [10] was 2.30, the yellow index [11] was 0.65 and the yellow index [12] was 1.46.
`CCCCCCCCP(=O)(C(=O)c1c(C)cc(C)cc1C)C(=O)c1c(C)cc(C)cc1C` [PI-2, bis(2,4,6-trimethylbenzoyl) octylphosphine oxide, reference compound] showed a yellow index [1] of 2.20, a yellow index [2] of 0.59 and a yellow index [3] of 0.60. The yellow index [4] was 3.01, the yellow index [5] was 1.22 and the yellow index [6] was 1.06.
`CCSc1ccc2ccc(=O)oc2c1` [S9] showed a yellow index [7] of 2.17, a yellow index [8] of 1.20 and a yellow index [9] of 1.67. It also gave a yellow index [10] of 2.84, a yellow index [11] of 0.90 and a yellow index [12] of 1.44.
`Cc1cc(C)c(C(=O)P(=O)(c2ccccc2)c2ccccc2)c(C)c1` [PI-3, 2,4,6-trimethylbenzoyl-diphenyl phosphine oxide, reference compound] gave a yellow index [1] of 0.67, a yellow index [2] of 0.92 and a yellow index [3] of 0.93. For the same molecule, the yellow index [4] was 0.82, the yellow index [5] was 0.62 and the yellow index [6] was 1.02.
Molecule `Cc1c(-c2ccccc2)c(=O)oc2cc(SCCO)ccc12` [S6] has a yellow index [7] of 2.57, a yellow index [8] of 1.31 and a yellow index [9] of 1.33. It also gave a yellow index [10] of 2.13, a yellow index [11] of 1.45 and a yellow index [12] of 1.17.

From patent EP4578918A1, “PHOTOSENSITIZERS FOR PHOTOPOLYMERIZATION” (IGM Group B.V., priority 2023, dated 2025)
